Test results as given in publication PMC10774338.
Substitutions are numbered along the chain they refer to. These are yes or no findings as the source states them, for the method shown. Binding seen in cells or lysates may run through a third protein. Binding calls can cover weak binding; strength is not graded here. Where a sequence is shown, tags or fusion partners need not be part of it.

Key:
Experiment in all cases: co-IP; GFP-WDR44 wild-type or variants transiently expressed in RPE1 WDR44 KO F4 cells for 48 h; GFP proteins immunoprecipitated from lysate, blots probed with GFP, RAB11 and VAPA antibodies
[1] = target: T1, GFP-tagged WDR44 D669N (human) (UniProt Q5JSH3)
T1 sequence: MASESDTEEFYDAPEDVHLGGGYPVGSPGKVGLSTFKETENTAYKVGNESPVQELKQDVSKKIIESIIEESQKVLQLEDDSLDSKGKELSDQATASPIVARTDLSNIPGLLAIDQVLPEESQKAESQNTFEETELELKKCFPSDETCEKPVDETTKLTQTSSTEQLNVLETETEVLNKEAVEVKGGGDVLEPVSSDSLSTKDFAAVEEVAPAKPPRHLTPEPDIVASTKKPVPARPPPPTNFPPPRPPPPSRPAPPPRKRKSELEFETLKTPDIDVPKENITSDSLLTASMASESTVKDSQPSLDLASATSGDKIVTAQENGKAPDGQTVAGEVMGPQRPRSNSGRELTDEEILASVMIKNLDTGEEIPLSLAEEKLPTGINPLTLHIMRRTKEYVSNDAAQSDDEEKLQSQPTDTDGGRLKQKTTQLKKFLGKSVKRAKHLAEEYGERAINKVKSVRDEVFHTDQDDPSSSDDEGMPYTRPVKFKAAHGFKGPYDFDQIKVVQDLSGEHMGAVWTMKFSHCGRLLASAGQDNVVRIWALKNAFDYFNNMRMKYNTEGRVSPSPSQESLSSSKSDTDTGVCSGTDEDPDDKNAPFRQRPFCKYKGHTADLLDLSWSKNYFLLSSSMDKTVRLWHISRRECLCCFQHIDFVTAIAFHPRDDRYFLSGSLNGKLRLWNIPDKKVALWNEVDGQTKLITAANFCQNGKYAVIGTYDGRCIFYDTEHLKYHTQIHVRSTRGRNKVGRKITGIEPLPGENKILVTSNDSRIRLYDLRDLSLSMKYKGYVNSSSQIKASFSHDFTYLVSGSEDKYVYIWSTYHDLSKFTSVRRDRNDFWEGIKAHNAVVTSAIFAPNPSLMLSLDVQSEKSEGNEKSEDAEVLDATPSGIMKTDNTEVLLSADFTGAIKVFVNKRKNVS

[2] = target: T2, GFP-tagged WDR44 S764F (human) (UniProt Q5JSH3)
T2 sequence: T1 sequence with N669D, S764F

[3] = target: T3, GFP-tagged WDR44 wild-type (human) (UniProt Q5JSH3)
T3 sequence: T1 sequence with N669D

Measured: binding

Endogenous RAB11
binds: all assays above
